# This is one part of the list. Further columns of the screen follow, without active or inactive calls. Compounds called inactive in the main read-out are mostly missing here. Potencies come from curve fits of mixed quality, noted in brackets.
# Test: IkB Signaling
# Details: ABC-DLBCL IkBa-CBG/CBR dual luciferase ratio (green luciferase fused to IkBa over red control in OCI-Ly3 lymphoma cells), 4 h
# Method in brief: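 Curves were fitted separately to fusion (green), unfused (red) and ratio luminescence, then classed by r2, magnitude and activity. Cells: OCI-Ly3, 4 h compound plus doxycycline at 37C; 10 uM MG-132 defined full response.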
# [1] = measured here: IkB-luc green channel
# [2] = measured here: control luc red channel
# [3] = measured here: control luc red channel unless noted
smiles,measurement,setting,value
Cc1ccnc(NC(c2cccc(O)c2)c2ccc3ccc(C)nc3c2O)c1 (configuration not stated),AC50,[1],"25.1 µM [rising, single point]"
same,AC50,[2],"12.6 µM [falling, partial curve]"
COc1cc(C(c2sc3nc(C)nn3c2O)N2CC(C)OC(C)C2)cc(OC)c1OC (configuration not stated),AC50,[3],"15.8 µM [falling, partial curve]"
O=C(Nc1cc(F)ccc1F)C1CCN(C(=O)c2cnn(-c3ccccc3)c2-n2cccc2)CC1,AC50,[3],"25.1 µM [falling, partial curve]"
COc1ccc(Cl)c2sc(NC(=O)c3ccc(S(=O)(=O)N4CCCC4)cc3)nc12,AC50,[3],"3.16 µM [falling, partial curve]"
COc1ccc(OC)c(C2CC(=O)Nc3c2c(=O)n(C)c2ncnn32)c1 (configuration not stated),AC50,[3],"25.1 µM [rising, partial curve, poor fit]"
Cc1ccc(C)c(CN2CCCN(Cc3ccccc3C)S2(=O)=O)c1,AC50,[3],"10 µM [falling, partial curve]"
Cc1cc(C)cc(NC(=O)CN2C(=O)c3ccccc3Sc3ccc(C(=O)N4CCCC4)cc32)c1,AC50,[3],"12.6 µM [falling, partial curve]"
O=C(CN1C(=O)CCc2cc(Br)ccc21)Nc1ccc(OC(F)(F)F)cc1,AC50,[3],"7.94 µM [falling, full curve]"
CCOC(=O)c1ccc(Nc2c(-c3ccc(N(C)C)cc3)nc3nc[nH]n23)cc1,AC50,[1],"39.8 µM [rising, single point]"
same,AC50,[2],"0.398 µM [falling, full curve]"
COc1ccccc1NC(=O)CSc1nnc2c(n1)[nH]c1ccccc12,AC50,[3],"12.6 µM [falling, partial curve]"
COc1ccc(CCn2c(-c3ccco3)nc3ccccc3c2=O)cc1OC,AC50,[3],"7.94 µM [falling, full curve, poor fit]"
C[C@@H](Cc1ccccc1)Nc1ncnc2c1ncn2[C@@H]1O[C@@H](CO)[C@H](O)[C@@H]1O,AC50,[3],"1.58 µM [rising, partial curve, poor fit] [measured here: IkB-luc green channel]"
CCOC(=O)c1c(C)oc2ccc(N(C(=O)c3ccncc3)S(=O)(=O)c3ccc(F)cc3C)cc12,AC50,[3],"15.8 µM [falling, partial curve]"
CC(C)CCNC(=O)CCCn1c(=O)c2cccn2c2ccccc21,AC50,[3],"12.6 µM [falling, partial curve]"
Cc1cccc(CS(=O)(=O)Cc2ccc(C(=O)NCc3ccc(F)cc3)o2)c1,AC50,[3],"12.6 µM [falling, single point]"
COc1ccccc1N1CCN(S(=O)(=O)c2cc(C(=O)Nc3ccc(Oc4ccccc4)cc3)ccc2F)CC1,AC50,[3],"7.94 µM [falling, full curve]"
COc1cccc(NC(=O)c2cnc(SCC(=O)N3CCCc4ccccc43)n(C)c2=O)c1,AC50,[1],"39.8 µM [rising, single point]"
same,AC50,[2],"20 µM [falling, partial curve]"
COC(=O)c1ccccc1NC(=O)c1cc(OC)cc(OC)c1,AC50,[3],"7.94 µM [falling, partial curve]"
CCc1ccccc1-n1c(SCC(=O)Nc2ccc(C)cc2)nc2n[nH]c(C)c2c1=N,AC50,[3],"15.8 µM [falling, partial curve]"
O=C1Nc2ccccc2C12OCC(COc1ccc(Cl)cc1)O2 (configuration not stated),AC50,[3],"12.6 µM [falling, partial curve]"
CCc1cccc(NC(=O)Cn2c(-c3ccc(F)cc3)cc(C(C)=O)c2C)c1,AC50,[3],"39.8 µM [falling, single point]"
O=C(c1ccc2c(c1)N(Cc1ccccc1Cl)C(=O)c1ccccc1S2)N1CCCC1,AC50,[3],"25.1 µM [falling, partial curve]"
CC(C)(C)c1csc(NC(=O)c2ccc(Cl)s2)n1,AC50,[3],"7.94 µM [falling, full curve]"
Cc1ccccc1CNC(=O)CN1CCSc2ccccc21,AC50,[3],"25.1 µM [falling, partial curve]"
COc1ccc(NC(=O)CN2CCCN(Cc3ccccc3)S2(=O)=O)cc1,AC50,[3],"25.1 µM [falling, single point]"
Cc1ccc(NC(=O)C2CCN(S(=O)(=O)c3ccc4c(c3)CCCC(=O)N4)CC2)c(Br)c1,AC50,[3],"10 µM [falling, partial curve]"
CCCCOC(=O)c1ccc(NC(=O)c2ccc3c(c2)CCCN3S(C)(=O)=O)cc1,AC50,[3],"25.1 µM [falling, single point]"
CC(C)COc1ccc(-c2nnc(-c3ccco3)o2)cc1,AC50,[3],"39.8 µM [falling, single point]"
O=C(CSc1nnc(CNC(=O)c2ccccc2)n1-c1ccc(F)cc1)Nc1ccccc1F,AC50,[3],"10 µM [falling, partial curve]"
CCCCOc1ccc(C(=O)Nc2sc3c(c2C(=O)OCC)CCCCC3)cc1,AC50,[3],"31.6 µM [falling, single point]"
Cc1nc(C)n(CC(O)COc2ccc3cc(Br)ccc3c2)n1 (configuration not stated),AC50,[3],"15.8 µM [falling, partial curve]"
COc1ccc(Nc2ncc(C(=O)Nc3ccc(F)cc3F)c3ccccc23)cc1,AC50,[3],"20 µM [falling, partial curve]"
CCN(CC)C(=O)Cn1cc(SCC(=O)Nc2cc(OC)ccc2OC)c2ccccc21,AC50,[3],"15.8 µM [falling, partial curve]"
CC1(C)Cc2cccc(OCC(=O)Nc3ccccc3N3CCOCC3)c2O1,AC50,[3],"10 µM [falling, partial curve]"
O=C(Nc1cccc(F)c1)c1ccc(S(=O)(=O)N2CCCC2)cc1,AC50,[3],"10 µM [falling, partial curve]"
CCC(CC)C(=O)Nc1ccc2nc(SCC(=O)N3CCOCC3)sc2c1,AC50,[3],"0.316 µM [falling, partial curve]"
Cc1ccccc1C(=O)Nc1sc2c(c1C(=O)N1CCCCC1)CCC(C(C)(C)C)C2 (configuration not stated),AC50,[3],"10 µM [falling, partial curve]"
O=C(NCc1ccc(Cl)cc1)C1CCN(S(=O)(=O)c2ccc(F)cc2)CC1,AC50,[3],"15.8 µM [falling, partial curve]"
COc1ccccc1NC(=O)CSc1nnc(Cc2cc(=O)[nH]c(=O)[nH]2)n1-c1ccccc1,AC50,[3],"20 µM [falling, partial curve]"

# Two entries from above, reformatted.
smiles | measurement | setting | value
CCOC(=O)c1ccc(Nc2c(-c3ccc(N(C)C)cc3)nc3nc[nH]n23)cc1 | AC50 | [2] | 0.398 µM [falling, full curve]
COc1ccccc1NC(=O)CSc1nnc2c(n1)[nH]c1ccccc12 | AC50 | [3] | 12.6 µM [falling, partial curve]
